The list shows a part of the results. The main result of the screen is listed elsewhere. These columns were measured beside it and carry no call. Compounds called inactive in the main read-out are mostly missing here. Words in brackets tell the shape of the fitted curve; partial curves, single points and poor fits give uncertain potencies.
Assay: qHTS Assay for Modulators of Lamin A Splicing
Conditions: HeLa LMNA splicing GFP/RFP minigene ratio, 48 h
Procedure, shortened: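 Read-out is the ratio of GFP to DsRed2 object intensity, acquired by 488 nm laser-scanning cytometry on HeLa lamin A-EGFP minigene reporter cells. Compound incubation 48 hrs at 37 °C in Opti-MEM with 2% FBS; DMSO 0.5% final.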

[1] = measured here: GFP splicing reporter channel
[2] = measured here: RFP viability control channel

SMILES | AC50 [1] | AC50 [2]
CN(C)c1ccc(-c2nccc(NCc3cccs3)n2)cc1 | 5.01 µM [falling, partial curve] | 15.8 µM [falling, partial curve]
O=S(=O)(Nc1ccc(Cc2ccncc2)cc1)c1ccc(Cl)s1 | 8.91 µM [rising, partial curve, poor fit] | 12.6 µM [rising, partial curve]
COc1cccc(Cn2c(=O)c(-c3ccc(Cl)cc3)nc3cncnc32)c1 | 3.16 µM [falling, full curve] | 3.55 µM [falling, full curve]
CCc1c(C)nc2ccc(Br)cc2c1SCCC#N |  | 25.1 µM [rising, single point]
Nc1sccc1C(=O)c1ccccc1 |  | 15.8 µM [rising, partial curve]
COc1ccc(NC(=O)c2ccccc2NS(=O)(=O)c2ccc(C)cc2)c([N+](=O)[O-])c1 |  | 31.6 µM [rising, single point]
CC(Oc1ccc(Cl)cc1)C(=O)Nc1nccs1 (configuration not stated) |  | 12.6 µM [rising, single point]
CC(=O)Oc1cc2oc(=O)c3c(c2cc1Cl)CCC3 | 17.8 µM [rising, single point] | 22.4 µM [rising, single point]
COc1ccc(-c2nnc3ccc(SCC(=O)Nc4cc(C)on4)nn23)cc1 | 0.0708 µM [rising, full curve, poor fit] | 
CC(=O)NC1=C(N(C)C2CCS(=O)(=O)C2)C(=O)c2ccccc2C1=O (configuration not stated) |  | 31.6 µM [rising, single point]
O=C(/C=C\c1ccc2c(c1)OCO2)NC1(C(=O)Nc2ccc3c(c2)OCCO3)CCCCC1 | 0.0316 µM [rising, full curve, poor fit] | 
COc1ccc(C(=O)C[n+]2ccc3c(c2)nnn3-c2ccccc2)cc1 | 35.5 µM [falling, single point] | 35.5 µM [falling, single point]
COc1cc(NC(=O)c2cccnc2Sc2ccc(Cl)cc2)cc(OC)c1OC |  | 12.6 µM [rising, partial curve]
O=c1c2ccccc2nc(SCc2nc3ccccc3s2)n1CCCO | 12.6 µM [rising, partial curve, poor fit] | 12.6 µM [rising, partial curve, poor fit]
Cc1ccc(S(=O)(=O)/C(=C/Cl)NC(=O)c2ccccc2)cc1 | 35.5 µM [falling, single point] | 31.6 µM [falling, single point]
Cc1ccc(C2CC(=O)C(C=NCCN3CCN(C(=S)Nc4ccccc4)CC3)=C(O)C2)cc1 (configuration not stated) |  | 0.158 µM [rising, full curve, poor fit]
COC(=O)C1=C(C)NC(=O)/C1=C\c1ccco1 |  | 2.51 µM [falling, full curve, poor fit]
CC(C)CSC1=NSC2=NC(=O)/C(=C\c3cccs3)C(=N)N12 | 2.51 µM [rising, single point] | 
C=CCn1c(SCc2ccc(C#N)cc2)nnc1-c1cccc(OC)c1 | 8.91 µM [rising, partial curve, poor fit] | 15.8 µM [rising, partial curve]
COc1cc(C(=O)c2ccccc2)c(OC)cc1C(=O)Nc1ccc(O)cc1 | 7.08 µM [falling, full curve] | 7.94 µM [falling, full curve, poor fit]
CCOC(=O)c1c(NC(=O)Cn2cnc([N+](=O)[O-])n2)sc2c1CCCC2 |  | 12.6 µM [rising, partial curve, poor fit]
O=C(Cc1ccccc1)N/N=C/c1ccc2cccc(O)c2n1 | 14.1 µM [falling, partial curve, poor fit] | 28.2 µM [falling, partial curve]
CC1=N/C(=C/c2ccco2)C(=O)O1 | 6.31 µM [rising, single point] | 0.891 µM [falling, partial curve]
O=C(CCn1cnc(-c2ccccc2)c1-c1ccccc1)N/N=C/c1ccc(O)cc1 |  | 35.5 µM [rising, single point]
CC(C)(C)C1CCC2(CC1)C(C#N)=C(SCC(=O)NC1CCCCC1)NC(=O)C2C#N (configuration not stated) |  | 8.91 µM [rising, partial curve, poor fit]
CCC(CC)C(=O)Nc1nnc2n1CCS2 | 0.0251 µM [rising, full curve, poor fit] | 0.0282 µM [rising, full curve, poor fit]

As entered above.
COc1cccc(Cn2c(=O)c(-c3ccc(Cl)cc3)nc3cncnc32)c1 | AC50 [2]: 3.55 µM [falling, full curve]
CC1=N/C(=C/c2ccco2)C(=O)O1 | AC50 [2]: 0.891 µM [falling, partial curve]
CCOC(=O)c1c(NC(=O)Cn2cnc([N+](=O)[O-])n2)sc2c1CCCC2 | AC50 [2]: 12.6 µM [rising, partial curve, poor fit]

(further entries)

SMILES | AC50 [1] | AC50 [2]
O=c1cc(-c2c(F)c(F)c(F)c(F)c2F)oc2c(F)c(F)c(F)c(F)c12 |  | 35.5 µM [rising, single point]
COC(=O)[C@@H]1CCCN1C(=O)CCc1nnc(CCC2CCCCC2)o1 |  | 10 µM [falling, partial curve]
Cc1ccc(C)c(S(=O)(=O)N/N=C/c2ccc(F)cc2)c1 |  | 0.355 µM [falling, full curve, poor fit]
N#Cc1ccc2c(c1)N(CCCN1CCC(O)CC1)c1ccccc1S2 | 20 µM [falling, partial curve] | 0.00631 µM [falling, full curve, poor fit]
COc1cccc(Cc2nc3ccccc3nc2SCC(=O)Nc2ccccc2F)c1 | 7.94 µM [falling, partial curve, poor fit] | 28.2 µM [falling, partial curve]
O=C(CCC1CCCCC1)N1CCN(Cc2ccc3c(c2)OCO3)CC1 |  | 35.5 µM [rising, single point]
COC(=O)c1ccc2c(=O)n(-c3ccccc3)c(SCN3C(=O)c4ccccc4C3=O)nc2c1 |  | 0.0708 µM [falling, full curve, poor fit]
Cc1ccc(S(=O)(=O)CCC(=O)c2ccc(O)cc2O)cc1 |  | 22.4 µM [rising, single point]
COc1ccc(C(C)=O)c(Oc2nc(CN3CCOCC3)nc3scc(-c4cccs4)c23)c1 | 2.82 µM [rising, full curve, poor fit] | 3.98 µM [rising, single point]
CCC1(c2ccccc2)C(=O)NCNC1=O | 3.98 µM [rising, full curve, poor fit] | 
Cc1ccc(-c2nc(N)sc2-c2ccccc2)cc1C | 17.8 µM [rising, partial curve] | 25.1 µM [rising, partial curve]
N#CC(Nc1ccccc1)c1ccccc1OCc1ccccc1 (configuration not stated) |  | 35.5 µM [rising, single point]
CCn1c(COc2c(C)cccc2C)nnc1SCC(=O)N1CCN(c2ccccc2)CC1 | 4.47 µM [rising, partial curve] | 3.98 µM [rising, full curve]
CCOC(=O)C1CCCN(CC(=O)Nc2c(C(=O)OC)[nH]c3ccccc23)C1 (configuration not stated) | 1.58 µM [rising, full curve, poor fit] | 2.82 µM [rising, partial curve]
C=CCSc1nnc(NC(=O)c2cn(CC)c3nc(C)ccc3c2=O)s1 | 0.282 µM [falling, full curve] | 
Cc1ccc(CNCC(O)(c2ccccc2)c2ccc(F)cc2)cc1 (configuration not stated) | 17.8 µM [falling, single point] | 25.1 µM [falling, single point]
CCN(CC)S(=O)(=O)c1nnc(NC(=O)COc2cccc(C)c2)s1 |  | 0.00282 µM [falling, full curve, poor fit]
Cc1ccccc1N1CCN(CCCN2C(=O)CC(=C(c3ccccc3)c3ccccc3)C2=O)CC1 | 8.91 µM [rising, partial curve, poor fit] | 12.6 µM [rising, partial curve]
Cc1ccc(-n2c(SCC(=O)c3c(N)n(C)c(=O)n(C)c3=O)nc3sc4c(c3c2=O)CCCC4)c(C)c1 | 1.12 µM [rising, partial curve] | 4.47 µM [rising, full curve]
CC(=O)Oc1ccc(-c2cccc(C(=O)OCC(=O)Nc3ccccc3Oc3ccccc3)c2)cc1 |  | 15.8 µM [rising, partial curve]
COc1ccc(CCNC(=O)CCCCCn2c(SCC(N)=O)nc3cc4c(cc3c2=O)OCO4)cc1OC | 0.00316 µM [rising, full curve, poor fit] | 11.2 µM [rising, partial curve]
Cc1ccc2nc(N3C(=O)C(O)=C(C(=O)c4cc5ccccc5o4)C3c3cccs3)sc2c1 (configuration not stated) |  | 31.6 µM [rising, single point]
N/C(=N\OC(=O)c1ccc(Cl)cc1[N+](=O)[O-])c1cccnc1 | 15.8 µM [falling, partial curve, poor fit] | 11.2 µM [falling, partial curve]
COC(=O)C1=C(C(=O)OC)[C@@H]2N(Cc3ccccc3)c3ccccc3[C@@]23C[C@@H](C(=O)OC)N(S(=O)(=O)c2ccc(C(F)(F)F)cc2)C3=N1 | 0.141 µM [rising, full curve, poor fit] | 1.78 µM [rising, single point]
CC(C)Oc1cc(NC(=O)CSCC(=O)Nc2cccc(C(F)(F)F)c2)c(Cl)cc1Cl | 35.5 µM [rising, single point] | 35.5 µM [rising, single point]
CN(C)CCCN1C(=O)c2cccc3c([N+](=O)[O-])ccc(c23)C1=O |  | 8.91 µM [rising, partial curve, poor fit]

Source: PubChem BioAssay AID1487 (National Center for Advancing Translational Sciences (NCATS), 2009)
